Screening data, single-dose tests

T. brucei: 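Whole-parasite assay of Trypanosoma brucei over 72 hours; the read-out is not stated. Tested at 30 µM. Direction is inferred from retests: higher values go with stronger inhibition. Values scatter widely below zero; nearly all retest evidence comes from the higher of the two concentrations used. About 64,000 compounds were tested under these conditions; 1.5% (about 940) showed 50% or more at least once.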
Toxoplasma: 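Assay of Toxoplasma gondii numbers, read through their beta-galactosidase reporter with a colour substrate. Concentration: 10 µM. The record gives no direction; the compounds picked for IC50 retests had high values, so higher reads as fewer parasites. Of about 67,000 compounds tested this way, about 260 (0.38%) reached 50% or more in at least one test.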

Each number is a percent effect as filed.
How 0% and 100% were set is not recorded. Most values in the screen are low, and negative values occur.
The compounds are a random part of those screened.
A dash means the value is not listed here; it may have been measured.

compound	T. brucei	Toxoplasma
O=C(Cc1ccco1)N1CCC2(CCOCC2COCC2CC2)CC1 (stereo not drawn)	-20.79	10.94
Cc1noc(CNc2cccc(C(=O)N3CCCC(O)C3)c2)n1 (stereo not drawn)	-26.41	1.654
CSc1nc2cc(C)n(CC(N)=O)c2c(=O)n1CC(C)C	-14.65	3.885
CC(C)NC(=O)c1ccc2nnc(C3CCN(C(=O)NC(C)C)C3)n2c1 (stereo not drawn)	-11.77	4.124
O=C(Cc1cccs1)NCC1Cn2nnc(-c3ccoc3)c2CO1 (stereo not drawn)	-70.47	6.203
O=S(=O)(N1CCCCCC1)N1CCN(Cc2ccc(F)cc2Br)CC1	-9.806	-19.23
CCc1c(C)sc2nc3n(CCN4CCOCC4)nc(SC)n3c(=O)c12	-24.88	-34.84
CCN1CCN(C(=O)c2cnc3c(cnn3C3CCCC3)c2)CC1	4.478	-28.13
Cc1nc(-c2ccc(Cl)s2)sc1C(=O)NCCCC(N)=O	-	9.323
Cc1cc(C)n(C2CCCN(C(=O)Cc3ccc(C#N)cc3)C2)n1 (stereo not drawn)	-	-11.02
CCN(CC)c1nc2ccsc2c(=O)n1CCC(=O)NC1CCCC1	3.439	21.93
COc1ccc(C(=O)N2CC[C@@H](N3CCC(O)CC3)[C@H](O)C2)cc1C	-21.52	-4.057
CCn1nc2c(cc1=O)CN(Cc1nc3ccccc3c(=O)[nH]1)CC2	-95.62	-3.284
CC(=O)c1ccccc1C(=O)NCC1(CO)CC1	-9.177	-2.308
COCc1nc(CNC2CSCCSC2)no1	-9.999	-12.07
CS(=O)(=O)c1ccc2c(c1)N(C(=O)Cc1ccc(F)cc1)CCC2	-32.31	-1.716
CC(NC(=O)Cn1ccc2sccc2c1=O)c1ccccc1 (stereo not drawn)	-1.979	8.356
CC(O)CN1CCN(C(=O)c2ccn(-c3cccc(Cl)c3)n2)CC1 (stereo not drawn)	-18.98	-1.059
O=C(O)C(F)(F)F.[H][C@]12CN(Cc3cccs3)C[C@@]1([H])OCCN(C(=O)c1ccsc1)C2	-112	-1.859
CC(C)Cn1ccnc1CNC(=O)NC(C)c1nccs1 (stereo not drawn)	-39.61	2.373
O=C(CC1CCCC1)N1CCC(c2noc(-c3ccccn3)n2)CC1	-14.27	24.5
CN(Cc1ccsc1)C(=O)c1cc(S(=O)(=O)N(C)C)ccc1Cl	-8.349	-2.308
O=C(C1CCOCC1)N1CC[C@@H](O)[C@@H]1Cc1ccccc1	-36.83	-4.489
CC(C)C(=O)NCc1cccc(N2CCCCC2=O)c1	4.321	-1.004
CN(C)c1cc(CNC(=O)Nc2nccs2)ccn1	-	3.773
COc1cc(N2CCC3(CCN(Cc4cccnc4)C3=O)C2)ncn1 (stereo not drawn)	-84.3	-6.391
CN(CCO)CC1COCCN1C(=O)C1CCCCC1.O=CO (stereo not drawn)	-4.713	6.348
COc1ccc(Oc2ncccc2NC(=O)N2CC[C@H](O)C2)cc1	-5.703	3.609
CCCS(=O)(=O)N1CCC(NC(=O)c2cc(CC)c(C)s2)CC1	12.19	18.14
Cc1nc(C)n(CC2CCCN2CC(=O)NCCc2ccccc2)n1 (stereo not drawn)	-57.1	-4.16
Cc1nc(C2NC3(CCCC3)C(=O)N2CC2CC2)cs1 (stereo not drawn)	-	-0.3139
CN1CCN([C@@H]2CCN(Cc3ccc4cc(F)ccc4n3)C[C@H]2O)CC1	-10.09	7.462
CO[C@@H]1CCC[C@@H](NC(=O)c2cccc(F)c2)[C@H]1O	-22.16	-8.138
COc1ccc(C(=O)N(Cc2cnn(C)c2)C(C)C)cc1Br	34.81	-0.1883
Cc1ncoc1C(=O)N1CCn2c(COc3cccnc3)cnc2C1C (stereo not drawn)	-15.62	6.005
[H][C@]12CCCCN1CCC[C@@]2(O)CN(CC)Cc1nc(COC)no1	-	-0.4523
CC(NCc1cc(O)c2cccc(F)c2n1)c1ccc(S(C)(=O)=O)cc1 (stereo not drawn)	-10.03	0.5508
CN(Cc1ccon1)c1nc(-c2ccccn2)nc2c1CCNCC2	-48.07	2.11
Cc1nc(C2CCCN(C(=O)c3ccoc3)C2)no1 (stereo not drawn)	-	12.05
Cn1c(CN2CCC(N3CCNC3=O)CC2)cc(=O)n(C)c1=O	-24.48	7.43
CCc1nnc(CN(C)Cc2cccc(C(=O)Nc3ccnn3C)c2)o1	-36.85	10.08
Cc1ccc(NC(=O)NC(C)C(=O)N2CCS(=O)(=O)CC2)cc1 (stereo not drawn)	-7.401	-5.77
COc1ccc(-c2cn([C@H](CO)CC(C)C)nn2)cn1	0.6272	-33.7
COCC1CN(c2ccc(Cl)cc2C#N)CCO1 (stereo not drawn)	-36.57	-1.138
O=C(O)C(F)(F)F.c1ccc2c(c1)N(CC1CCOC1)CC21CCN(c2cnccn2)CC1 (stereo not drawn)	99.95	-57.4
CN1CC(=O)N(c2ccsc2)CC12CCN(C(=O)c1ccccc1)C2.O=C(O)C(F)(F)F (stereo not drawn)	5.086	-11.02
O=C(O)C(F)(F)F.O=C(O)C(F)(F)F.[H][C@]12CCC[C@@]1(COc1cccnc1)CN(CC1CCOCC1)C2	4.865	-18.24
Cc1cc(C(=O)NC(COCC(C)C)c2ccco2)no1 (stereo not drawn)	-14.99	-5.657
Cc1nc(C2CCCN(C(=O)c3ccc(N4CCCC4)nn3)C2)no1 (stereo not drawn)	-0.2005	-23.11
Cc1cccc2c1cnn2CCCNC(=O)CCCC(=O)O	9.075	17.97
COc1cccc(-n2nnc(C(=O)N3CCCC(C)C3)c2C)c1 (stereo not drawn)	0.1834	-6.416
CC(C)C(=O)Nc1cccc(OCC(=O)NCc2ccccc2F)c1	3.443	-7.636
CCC(NCc1cccc(Cl)c1)c1ccccc1OCC(=O)NC (stereo not drawn)	-34.71	4.769
O=C(O)C(F)(F)F.[H][C@@]12CN(CC)C[C@]1([H])[C@H](OC)CCN2C(=O)Cc1ccsc1	17.77	3.513
COc1ccc(C(CNC(=O)c2cnc(C)cn2)N2CCOCC2)cc1 (stereo not drawn)	-25.34	-0.6321
CN(Cc1ccncc1)C1CC2(CCN(c3ncccn3)CC2)C1.O=C(O)C(F)(F)F.O=C(O)C(F)(F)F.O=C(O)C(F)(F)F	-9.534	1.932
COc1ccc(-n2cnnc2SCC(=O)N(C)C(C)C)cn1	19.1	8.256
CSCCc1nc(-c2ccc3c(c2)OCO3)n(C)n1	-22.17	-0.3567
CCOc1ccc(CN(C)C(=O)COc2ccc(C)nc2)cc1	-2.394	0.2674
CN(Cc1ccc(F)cc1)C(=O)c1ccoc1CN1CCNC(=O)C1	-7.587	16.83
CC1(C(=O)NCc2cccnc2Oc2ccc(F)c(F)c2)CCCNC1 (stereo not drawn)	-31.1	7.737
CCc1cnc2c(c1NCc1cccc(OC)c1)c(=O)n(C)c(=O)n2C	-1.472	-4.767
Cc1ccc(C2(O)CCN(C(=O)CCn3ccc(=O)[nH]c3=O)CC2)nc1	-36.19	4.499
O=C1NCC(C(=O)Nc2ncc(Cc3cccc(F)c3)s2)N1 (stereo not drawn)	10.39	-4.309

For reference, 6 entries once more:

| compound | T. brucei | Toxoplasma |
|---|---|---|
| `CCOc1ccc(CN(C)C(=O)COc2ccc(C)nc2)cc1` | -2.394 | 0.2674 |
| `Cc1cc(C(=O)NC(COCC(C)C)c2ccco2)no1` (stereo not drawn) | -14.99 | -5.657 |
| `CC(C)C(=O)Nc1cccc(OCC(=O)NCc2ccccc2F)c1` | 3.443 | -7.636 |
| `CO[C@@H]1CCC[C@@H](NC(=O)c2cccc(F)c2)[C@H]1O` | -22.16 | -8.138 |
| `CCc1cnc2c(c1NCc1cccc(OC)c1)c(=O)n(C)c(=O)n2C` | -1.472 | -4.767 |
| `Cn1c(CN2CCC(N3CCNC3=O)CC2)cc(=O)n(C)c1=O` | -24.48 | 7.43 |

Source: ChEMBL document CHEMBL3988442, “University of Dundee, Small-Polar-MMV Screening Library” (2021).